# Results from patent US6365652B2, “Trisaryl-1,3,5-triazine ultraviolet light absorbers” (Ciba Specialty Chemicals Corporation, priority 1997, dated 2002).
# Tests used:
# [1] = Bonding to a polycarboxylic acid: reaction with adipic acid in refluxing xylenes, HPLC
# [2] = Two-layer method, water-based polyurethane coating, UV depth profiling
# [3] = QUV accelerated weathering (UVB-313 bulbs) of acrylic urethane clear coat; details: for DOI / Gloss / b: 0 h QUV
# Source text: Compounds D and E were formulated in clear coatings which were applied to panels for accelerated weathering testing as follows. Compound D or E (1% or 2% based on total resin solids) and/or SANDUVOR® S-3055 HALS-type stabilizer (1% based on total resin solids) were predissolved in the solvent mixture (to a 5-10% solids level) and added to the clear acrylic urethane formulation given in Table 3 below. Components I and II were mixed just before use. Cold roll steel panels measuring 4″×12″ and precoated with an electro-coat primer ED505A and a white polyester acrylic melamine base-coat #542AB839, obtained from ACT Laboratories, Inc. (Hillsdale, Mich.) were coated with the clear coating formulations of Table 3. The draw-down technique, using WC-60 WireCators™ (Leneta Co., Hohokus, N.J.), was used to apply the clear coat to the pre-coated panels. The clear coats were allowed to flash for 10 min at ambient temperature and cured for 30 min at 135° C.
# Accelerated weathering was carried out on the clear coating formulations using a QUV device equipped with UVB-313 fluorescent bulbs. The coated panels were subjected to accelerated weathering under alternate cycles of (i) UV light at 70° C. for 8 hours and (ii) condensation with no UV light at 50° C. for 4 hours (ASTM G53, GM cycle). Specular properties such as gloss ([…], ASTMD523) and distinctness of image (“DOI”) (Dorigon Meter D47R-6FT, Hunter Associate Laboratory) and yellowing (“Delta b”) were measured as a function of weathering time.
# The results for QUEV exposure using Compounds D or E as the sole stabilizer are presented below in Table 4. The results for QUV exposure using Compounds D or E in combination with S-3055 HALS are presented below in Table 5.
# Example 6 was repeated, except that Compound G was used in place of Compounds D and E. The results for QUV exposure using Compound G as the sole stabilizer, and in combinations with a HALS, are presented below in Table 6.
# The clear coating composition of Example 6 was used to evaluate the performance of Compounds E and F, alone at 2%, and in combination with a HALS, SANDUVOR® 3055 (1% of Compound E plus 1% of S-3055; and 1% of Compound G plus 1% of S-3055). These coating compositions were weathered by QUV according to the method of Example 6.
# [4] = Two-layer approach, polyurethane coating on steel, UV depth profiling; details: 2% in top layer
# [5] = 1% Comp. G + 1% HALS, 501 h QUV
# [6] = 1% Comp. G + 1% HALS, 1004 h QUV
# [7] = 1% Comp. G + 1% HALS, 1515 h QUV
# [8] = 1% Comp. G + 1% HALS, 1998 h QUV
# [9] = 1% Comp. G + 1% HALS, 2499 h QUV
# [10] = 1% Comp. G + 1% HALS, 3003 h QUV
compound,measurement,setting,value
"CCCCN(CCO)C(=O)COc1ccc(-c2nc(-c3ccc(C)cc3C)nc(-c3ccc(C)cc3C)n2)c(O)c1 [Compound E, 4-[4,6-Bis(2′4′-dimethylphenyl)-1,3,5-triazin-2-yl]-3-hydroxyphenoxyacetic acid, N-(n-butyl)-N-(2-hydroxyethyl)amide]",Reaction with adipic acid (HPLC),[1]; reflux in xylenes 1.5 h,completely reacted
same,Amount migrated during cure from top paint layer into lower layer,[2],insignificant
same,UV absorbance in the bottom layer,[2]; interface at 50 μm,No UV absorbance is observed
"C=C(C)c1cccc(C(C)(C)NC(=O)OCCOc2ccc(-c3nc(-c4ccc(C)cc4C)nc(-c4ccc(C)cc4C)n3)c(O)c2)c1 [Compound G, 2-{4-[4,6-bis(2′4′-dimethylphenyl)-1,3,5-triazin-2-yl]-3-hydroxyphenoxy}-eth-1-yl N-(meta-isopropenyl-α,α-dimethylbenyzl) carbamate]",DOI,[3]; 1% Comp. G + 1% HALS,85.6
same,Gloss,[3]; 1% Comp. G + 1% HALS,94.4
same,b,[3]; 1% Comp. G + 1% HALS,4.06
same,% DOI Retention,[3]; [5],100.4%
same,% Gloss Retention,[3]; [5],102.0%
same,Delta b,[3]; [5],1.09
same,% DOI Retention,[3]; [6],100.5%
same,% Gloss Retention,[3]; [6],102.8%
same,Delta b,[3]; [6],1.76
same,% DOI Retention,[3]; [7],101.3%
same,% Gloss Retention,[3]; [7],100.4%
same,Delta b,[3]; [7],2.52
same,% DOI Retention,[3]; [8],95.4%
same,% Gloss Retention,[3]; [8],99.5%
same,Delta b,[3]; [8],2.66
same,% DOI Retention,[3]; [9],101.9%
same,% Gloss Retention,[3]; [9],105.4%
same,Delta b,[3]; [9],3.68
same,% DOI Retention,[3]; [10],100.4%
same,% Gloss Retention,[3]; [10],95.3%
same,Delta b,[3]; [10],3.78
same,DOI,[3]; 2% Comp. G alone,86.9
same,Gloss,[3]; 2% Comp. G alone,95.2
same,b,[3]; 2% Comp. G alone,4.29
same,% DOI Retention,"[3]; 2% Comp. G alone, 501 h QUV",100.6%
same,% Gloss Retention,"[3]; 2% Comp. G alone, 501 h QUV",100.9%
same,Delta b,"[3]; 2% Comp. G alone, 501 h QUV",2.38
same,% DOI Retention,"[3]; 2% Comp. G alone, 1004 h QUV",100.5%
same,% Gloss Retention,"[3]; 2% Comp. G alone, 1004 h QUV",101.9%
same,Delta b,"[3]; 2% Comp. G alone, 1004 h QUV",3.13
same,% DOI Retention,"[3]; 2% Comp. G alone, 1515 h QUV",100.5%
same,% Gloss Retention,"[3]; 2% Comp. G alone, 1515 h QUV",100.6%
same,Delta b,"[3]; 2% Comp. G alone, 1515 h QUV",4.67
same,% DOI Retention,"[3]; 2% Comp. G alone, 1998 h QUV",96.3%
same,% Gloss Retention,"[3]; 2% Comp. G alone, 1998 h QUV",92.0%
same,Delta b,"[3]; 2% Comp. G alone, 1998 h QUV",5.31
same,% DOI Retention,"[3]; 2% Comp. G alone, 2499 h QUV",64.3%
same,% Gloss Retention,"[3]; 2% Comp. G alone, 2499 h QUV",75.6%
same,Delta b,"[3]; 2% Comp. G alone, 2499 h QUV",5.79
same,% DOI Retention,"[3]; 2% Comp. G alone, 3003 h QUV",30.3%
same,% Gloss Retention,"[3]; 2% Comp. G alone, 3003 h QUV",51.8%
same,Delta b,"[3]; 2% Comp. G alone, 3003 h QUV",6.12
"Cc1ccc(-c2nc(-c3ccc(C)cc3C)nc(-c3ccc(OCCCCCCOC(N)=O)cc3O)n2)c(C)c1 [Compound I, 2,4-bis(2,4-dimethylphenyl)-6-[2-hydroxy-4-(6-carbamoyloxyhexyloxy)phenyl]-1,3-5-triazine]",Compound present in bottom layer of two-layer coating,[4]; cure 30 min at 80° C.,completely absent
same,Compound present in bottom layer of two-layer coating,[4]; cure 30 min at 120° C.,5%
"Cc1ccc(-c2nc(-c3ccc(C)cc3C)nc(-c3ccc(OCCCCCCO)cc3O)n2)c(C)c1 [HTT, 2,4-bis(2,4-dimethylphenyl)-6-[2-hydroxy-4-(6-hydroxyhexyloxy)phenyl]-1,3-5-triazine]",Conversion to diester (Compound M) plus monoester,"[1]; 73 hr at reflux, HPLC area percent at 290 nm",14%
same,Reaction with adipic acid (HPLC),[1]; reflux in xylenes 2.5 h,unreacted
